Data reported in article PMC7819943, “Rice protein-binding microarrays: a tool to detect cis-acting elements near promoter regions in rice”.
The list shows a part of the results.

Chains of the proteins cited; added tags and fusions are not shown.
UniProt Q0JBA9, entry or part of it: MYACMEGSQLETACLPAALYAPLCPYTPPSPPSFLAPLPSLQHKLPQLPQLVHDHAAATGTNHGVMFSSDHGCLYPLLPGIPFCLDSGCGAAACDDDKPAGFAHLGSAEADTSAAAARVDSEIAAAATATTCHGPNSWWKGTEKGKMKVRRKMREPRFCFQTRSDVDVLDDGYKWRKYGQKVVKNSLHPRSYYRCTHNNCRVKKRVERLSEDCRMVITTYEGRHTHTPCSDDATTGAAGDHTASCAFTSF

Molecular target: OsWRKY34 (Oryza sativa, UniProt Q0JBA9 1-250)
Experiment: protein-binding microarray (RPBM); PBS, 2% BSA, 51.3 ng/ul salmon testes DNA, 50 uM zinc acetate, 200 nM TF, 25 C, 1 h; high values mean tight binding
Conditions: protein: recombinant; tags: N-terminal polyhistidine and DsRed monomer fusion (pET32a); label: CyDye5-dUTP incorporated in the synthesized complementary strand; 3' TTTTT single-stranded linker to array surface; dsDNA, one strand shown
Method in brief: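 An Axon 4000B scanner gave the binding signal as per-feature fluorescence intensity in arbitrary units. This followed washing of a custom Agilent array that had been incubated for 1 h at 25 °C with 200 nM protein in PBS, 2% BSA, salmon testes DNA and 50 µM zinc acetate. The proteins were transcription factors fused at the N-terminus to polyhistidine and DsRed, expressed in E. coli BL21-CodonPlus and purified on Ni–NTA.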

Sequence	binding signal
GCGCGGCGGAGGCGGTGGGGCAGAGGGTGTTCCACTTCGGCGGAGTCACCTAGTGCAG	8380 fluorescence intensity (a.u.)
GTTTATATATATGTCTTGATCGATCCTCGTTCTTGATCCGCGGAGTCACCTAGTGCAG	9800 fluorescence intensity (a.u.)
TTGCGCTGAACTAATCACAGCCGTTGACTTGGATTTGTTCCGGAGTCACCTAGTGCAG	8360 fluorescence intensity (a.u.)
GCCGGCCACCACCACCACTCTCTACTCCGGCGACATCATGCGGAGTCACCTAGTGCAG	8200 fluorescence intensity (a.u.)
CAACCTCGCCATCTTTCCCTGACATGTCGCTCACCGCTATCGGAGTCACCTAGTGCAG	8070 fluorescence intensity (a.u.)
CATGTCATTTTTTGTTCTAGGTGACAACTTATTTAATACTCGGAGTCACCTAGTGCAG	9110 fluorescence intensity (a.u.)
GAGGATGTGTTCTACCTATTTCTGTGGGTTGAGGGAGGTGCGGAGTCACCTAGTGCAG	10400 fluorescence intensity (a.u.)
GATTTGGGAGGGGTCGTTACCGGTGGGGTCCCGGATGCGACGGAGTCACCTAGTGCAG	12200 fluorescence intensity (a.u.)
CCCACCACCACCGCGGTCTCCACTGCGCCACGCTGCTGCCCGGAGTCACCTAGTGCAG	10800 fluorescence intensity (a.u.)
TGTCATGTCCATAAACCACATAGGCACAGGCCCAACCAAACGGAGTCACCTAGTGCAG	8540 fluorescence intensity (a.u.)
CCATGTGTCCCTGATTTCAAATTTGCTCACACGCACAGCCCGGAGTCACCTAGTGCAG	10700 fluorescence intensity (a.u.)
CCCCTTCTCTCTTTGTAATTACCTTTTTTTCGGTGAGCTTCGGAGTCACCTAGTGCAG	9540 fluorescence intensity (a.u.)
AGCTGACACATATCGTAACCATATCTCATACTATCTCTCTCGGAGTCACCTAGTGCAG	11600 fluorescence intensity (a.u.)
CACTTTATTTTTGAAAATTCGGGTGGGTAAGCTGGTGACTCGGAGTCACCTAGTGCAG	19200 fluorescence intensity (a.u.)
TCTGTTTGACATTTCCGAGGATTCTGATTATGCTCATGCTCGGAGTCACCTAGTGCAG	8800 fluorescence intensity (a.u.)
CGATTGCCATTGTTCGTGTGTTTTTTCTTGTCTCTTTCCGCGGAGTCACCTAGTGCAG	11000 fluorescence intensity (a.u.)
GTTTCTTTTTCAGCATTGGCTTTTAAGTCACCGAGAACACCGGAGTCACCTAGTGCAG	8240 fluorescence intensity (a.u.)
GGTAGTGGTGAGAAGAATCAAGGAGTGCCCGATATTTTTACGGAGTCACCTAGTGCAG	8020 fluorescence intensity (a.u.)
AATTTACACGTAAACTATGTAATTAGTTTTTTTTCACATTCGGAGTCACCTAGTGCAG	8670 fluorescence intensity (a.u.)
CCAGTTTTTGTTTTTCTTCATTTTGCTGTATGAACCTCGTCGGAGTCACCTAGTGCAG	10400 fluorescence intensity (a.u.)
ACGACTCCTTCACCACTTAAGTAATTGATTTTCTGGCGCGCGGAGTCACCTAGTGCAG	9060 fluorescence intensity (a.u.)

Looked up one by one from the entries so far:
Sequence	binding signal
TGTCATGTCCATAAACCACATAGGCACAGGCCCAACCAAACGGAGTCACCTAGTGCAG	8540 fluorescence intensity (a.u.)
GCCGGCCACCACCACCACTCTCTACTCCGGCGACATCATGCGGAGTCACCTAGTGCAG	8200 fluorescence intensity (a.u.)
TTGCGCTGAACTAATCACAGCCGTTGACTTGGATTTGTTCCGGAGTCACCTAGTGCAG	8360 fluorescence intensity (a.u.)

Continued.

Sequence	binding signal
GAGGAAGGTTGATGTATACAGCTTTGGAATTGTCTTGTGGCGGAGTCACCTAGTGCAG	8070 fluorescence intensity (a.u.)
CCCATTCTAGATATTAACTACTAATCTGACTCTATTTTTTCGGAGTCACCTAGTGCAG	8880 fluorescence intensity (a.u.)
CACCATCCCTGGGCCACATCCTATTTTGCCCGTTCGTGCTCGGAGTCACCTAGTGCAG	9240 fluorescence intensity (a.u.)
CCCCGCCTAATACCGTCGCCGATATAACCAACCAGTCTAACGGAGTCACCTAGTGCAG	8820 fluorescence intensity (a.u.)
ACGTTGATTAGTTAGTACTAACCTACTCCTACGTGTTAACCGGAGTCACCTAGTGCAG	8130 fluorescence intensity (a.u.)
CCCCAGGCGCTCACCCGCCACATCCGCTCCGCCTGCCTGCCGGAGTCACCTAGTGCAG	9030 fluorescence intensity (a.u.)
TCCTTTGATCGTGTCGTGCCAAGCTGGCCCATCGTGCTAACGGAGTCACCTAGTGCAG	9410 fluorescence intensity (a.u.)
CTCGACGCTCAGCTCCGCTCCTGTTCCGGCGCCGGCGCCGCGGAGTCACCTAGTGCAG	11100 fluorescence intensity (a.u.)
ACGTATTGCCTATAGGCGGAGGGGTGGTGGCGGATGAGTCCGGAGTCACCTAGTGCAG	12600 fluorescence intensity (a.u.)
GTCATCTCCTCCTCATCTTCTTGCTCTGCTCTGCTTCTTTCGGAGTCACCTAGTGCAG	10000 fluorescence intensity (a.u.)
TATCACTGTACACACTTCGTAATCACCTGGTGCAATGTACCGGAGTCACCTAGTGCAG	8490 fluorescence intensity (a.u.)
GGACACGGATATCAGGGTTTGTCTTTTTTTTTTTTTTTTTCGGAGTCACCTAGTGCAG	8320 fluorescence intensity (a.u.)
TCTTCATTCTGTGCTGTGATTCCTTCTCTCACTCTTTTTTCGGAGTCACCTAGTGCAG	16400 fluorescence intensity (a.u.)
TTTGAGTTTCATTAATTCATTGATCGTATTTGATGTGGACCGGAGTCACCTAGTGCAG	8280 fluorescence intensity (a.u.)
ATGTTATTATATTTTATTCCGAATTCTAGCGATTTATGTACGGAGTCACCTAGTGCAG	8130 fluorescence intensity (a.u.)
CATGTGTTTACTGGGGTGGTTGTTGTAACAAAATTGAGTACGGAGTCACCTAGTGCAG	9360 fluorescence intensity (a.u.)
TTCAACCTTGGTCACAGGTATGCTTTCCGTCCACGTATTCCGGAGTCACCTAGTGCAG	8050 fluorescence intensity (a.u.)
ACACCGCGATGTCGCTGTTCATCCACTGTTTGTGAATTGTCGGAGTCACCTAGTGCAG	8230 fluorescence intensity (a.u.)
AGTTTGTGTGTGTAGGAAAGTTTTGATGTGATGAAAAAGTCGGAGTCACCTAGTGCAG	8680 fluorescence intensity (a.u.)
CTCTGCCTGCCCTGCTTCTTGCCCACCACCACCTGTGTCCCGGAGTCACCTAGTGCAG	9420 fluorescence intensity (a.u.)
GACGTGGCACATATGTGGCTGATTTGACTCGGTCTTCATCCGGAGTCACCTAGTGCAG	8440 fluorescence intensity (a.u.)
